According to article PMC7819943, “Rice protein-binding microarrays: a tool to detect cis-acting elements near promoter regions in rice”:
The other results are listed elsewhere or left out.

Chains of the proteins cited; added tags and fusions are not shown.
UniProt Q0JBA9, entry or part of it: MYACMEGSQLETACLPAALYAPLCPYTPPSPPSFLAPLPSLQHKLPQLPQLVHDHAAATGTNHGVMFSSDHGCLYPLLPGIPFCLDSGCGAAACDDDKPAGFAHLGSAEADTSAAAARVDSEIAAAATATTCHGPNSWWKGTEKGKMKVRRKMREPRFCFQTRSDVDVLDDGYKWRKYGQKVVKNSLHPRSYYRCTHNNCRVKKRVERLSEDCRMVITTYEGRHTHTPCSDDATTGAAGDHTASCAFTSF

What follows are sequences tested against OsWRKY34 (Oryza sativa, UniProt Q0JBA9 1-250) (assay: protein-binding microarray (RPBM); PBS, 2% BSA, 51.3 ng/ul salmon testes DNA, 50 uM zinc acetate, 200 nM TF, 25 C, 1 h; high values mean tight binding). Details: protein: recombinant; tags: N-terminal polyhistidine and DsRed monomer fusion (pET32a); label: CyDye5-dUTP incorporated in the synthesized complementary strand; 3' TTTTT single-stranded linker to array surface; dsDNA, one strand shown.
Method in brief: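 Ni–NTA purification followed expression in E. coli BL21-CodonPlus of transcription factors fused N-terminally to a polyhistidine tag and DsRed. At 200 nM in PBS with 2% BSA, salmon testes DNA and 50 µM zinc acetate, the protein was incubated for 1 h at 25 °C with a custom Agilent array that had been primer-extended with Cy5-dUTP and blocked with 2% BSA. After washing, the array was read on an Axon 4000B scanner. The binding signal is per-feature fluorescence intensity in arbitrary units.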

| Sequence | binding signal |
| --- | --- |
| TTTTCAGGTGTGGGATTCGTAATGGTAAATATTGTTCTCCCGGAGTCACCTAGTGCAG | 9970 fluorescence intensity (a.u.) |
| TGGAGCGGCGGCGTTGGGTGGGTCGGCGGAGCAGGAGGATCGGAGTCACCTAGTGCAG | 13400 fluorescence intensity (a.u.) |
| TACGTGCATTTACTTAATCCTTATTTTTTTTATCACTTCCCGGAGTCACCTAGTGCAG | 9830 fluorescence intensity (a.u.) |
| TTGCCAGTTCTGTTCTGTTTCTTCTTGGCGACGGGTTGCCCGGAGTCACCTAGTGCAG | 11200 fluorescence intensity (a.u.) |
| CCCATGTCCCTGGTAAAACATTCCCTGACCACCTGCTCCACGGAGTCACCTAGTGCAG | 9270 fluorescence intensity (a.u.) |
| CAAATGAAGGCTACATGGGCGGGTGTTCGGTAGTCAAGATCGGAGTCACCTAGTGCAG | 11400 fluorescence intensity (a.u.) |
| GTGTTGAGATTTAATCTGTTTCATGAATTCTTCTGTTTTGCGGAGTCACCTAGTGCAG | 8820 fluorescence intensity (a.u.) |
| ACTTCTCGCTTCCGCTCCACGCCTCGCTGCCTGCCGCTCCCGGAGTCACCTAGTGCAG | 10900 fluorescence intensity (a.u.) |
| CGAACAAATCCCTATCCTGCATACCGCCATCGTCTCTTTCCGGAGTCACCTAGTGCAG | 9950 fluorescence intensity (a.u.) |
| CTCCTCCCAGAAACCGCACGTGCTGCCGCCCTATCCGATGCGGAGTCACCTAGTGCAG | 9630 fluorescence intensity (a.u.) |
| ACATGTGCATGAGTGCATCTGCATTTTCCTCCGTGCTTATCGGAGTCACCTAGTGCAG | 8540 fluorescence intensity (a.u.) |
| GCCACTACTCAACTCCCTTTGCCGTGTCCGTTGCCGTGTTCGGAGTCACCTAGTGCAG | 12000 fluorescence intensity (a.u.) |
| ACCTGACCAAATACTACTCACGAATGGTATCTCTGGTTTTCGGAGTCACCTAGTGCAG | 8830 fluorescence intensity (a.u.) |
| ATCCCACCACCTCGGCCTCACTGAGATCTCCGACTCCGATCGGAGTCACCTAGTGCAG | 10400 fluorescence intensity (a.u.) |
| AACTTGGTGGCTTTATGCTCCCACCCACTCGCTACCACTTCGGAGTCACCTAGTGCAG | 8210 fluorescence intensity (a.u.) |
| ACCTTTTTCTTTGTTTGTTTTCTGTTATTGAAGGGATTATCGGAGTCACCTAGTGCAG | 13100 fluorescence intensity (a.u.) |
| GCTCCTCGCCGTCCTTCACGGCCTCGACGTGCAGCGCCGCCGGAGTCACCTAGTGCAG | 8580 fluorescence intensity (a.u.) |
| TCCTGATTCCCCGAATTATACCGTCCAGTTGCTCTCCTCCCGGAGTCACCTAGTGCAG | 8890 fluorescence intensity (a.u.) |
| CCACCCTTTTGTTTGTATATAGTCAGTGAGTATGTTCGATCGGAGTCACCTAGTGCAG | 8360 fluorescence intensity (a.u.) |
| ACTGGTATTTTTGCGTCGATTTTGGACTTGTAGTCTTTGTCGGAGTCACCTAGTGCAG | 10100 fluorescence intensity (a.u.) |
| GCAAATGACTTAAGTGGTACAATTCTGCTCTTTTCTCTCTCGGAGTCACCTAGTGCAG | 9350 fluorescence intensity (a.u.) |

Single entries from above.
In binding signal, TTTTCAGGTGTGGGATTCGTAATGGTAAATATTGTTCTCCCGGAGTCACCTAGTGCAG is listed with 9970 fluorescence intensity (a.u.)
In binding signal, TTGCCAGTTCTGTTCTGTTTCTTCTTGGCGACGGGTTGCCCGGAGTCACCTAGTGCAG is listed with 11200 fluorescence intensity (a.u.)

Going on with the list:

| Sequence | binding signal |
| --- | --- |
| AGTTATACTTCTACATCATTAATTTGTTTGACCATACGACCGGAGTCACCTAGTGCAG | 9120 fluorescence intensity (a.u.) |
| CGCCCATGAAAATGGCCTGTTTCCCGGCTCGTCTACCGTCCGGAGTCACCTAGTGCAG | 8090 fluorescence intensity (a.u.) |
| GTCCAGGTGGGGTCCACCCGCGCCTTATCCTCAGCCACGACGGAGTCACCTAGTGCAG | 9360 fluorescence intensity (a.u.) |
| TCCTTCTCTCAGACTCTCACTCCACTCCACTCTATTAATCCGGAGTCACCTAGTGCAG | 9680 fluorescence intensity (a.u.) |
| TAGCTCTTGTACTATGACAGTTTTACTGATGTACCCCGGGCGGAGTCACCTAGTGCAG | 14600 fluorescence intensity (a.u.) |
| TCCTTTCTTTTGTAGGCACTTTTCTATTCAGCTCTCTTGTCGGAGTCACCTAGTGCAG | 9220 fluorescence intensity (a.u.) |
| CTGATGCTCTCACTCACCACTGTAAACTAGCTTGTTCTTACGGAGTCACCTAGTGCAG | 9290 fluorescence intensity (a.u.) |
| CCGGCGCGACGCGAGTGCTCTTTTCCCGCGCTTTTTTTTCCGGAGTCACCTAGTGCAG | 10800 fluorescence intensity (a.u.) |
| TTTCAAGCACAACTTTTCTTTTTATATTTGCACAATTTTTCGGAGTCACCTAGTGCAG | 10000 fluorescence intensity (a.u.) |
| GCCATCTCGTCTCCACCATTTACCAGGACAATGCCTTTAACGGAGTCACCTAGTGCAG | 10800 fluorescence intensity (a.u.) |
| AGAGCCCAGATGTTTACTTGTTCTACCACTTCAACTCATGCGGAGTCACCTAGTGCAG | 8120 fluorescence intensity (a.u.) |
| CCCTTTGCTGATGTGCTCGCCTGCGCTTTGACCACCGCTTCGGAGTCACCTAGTGCAG | 11100 fluorescence intensity (a.u.) |
| TCATCTGATTCCTGCGTTTTTCCTGTGGTCCAATCAAACGCGGAGTCACCTAGTGCAG | 8720 fluorescence intensity (a.u.) |
| CCTCATCCAATCCCAGCCGTCCATCCACCATCCAACGCCTCGGAGTCACCTAGTGCAG | 11500 fluorescence intensity (a.u.) |
| TATGGACAGATTTTTCACATTTTGATGCTCTCTACCGATCCGGAGTCACCTAGTGCAG | 9650 fluorescence intensity (a.u.) |
| ACCTGGTCACCCTGCGATCTTCTGCTTTGTGAATAATAAGCGGAGTCACCTAGTGCAG | 11400 fluorescence intensity (a.u.) |
| CACAATCCACCTCCAATTCGATACAGGGAGGGTCCATTTGCGGAGTCACCTAGTGCAG | 9220 fluorescence intensity (a.u.) |
| ACTAATTAGCAGTTCCTTTTTCATTGTAATTTATTTGTCGCGGAGTCACCTAGTGCAG | 8890 fluorescence intensity (a.u.) |
| AGTAGTCTTTTGTCTCTTCTTTATTTTAGTTTTTTTTTCTCGGAGTCACCTAGTGCAG | 12100 fluorescence intensity (a.u.) |
| CGCTGACGCCATCCACGCTTTCGTTTCCTTCCATTTTAGACGGAGTCACCTAGTGCAG | 12600 fluorescence intensity (a.u.) |
| CCTGTCCGTGTCCCGCCTACGAATTGCCGCCACGCCGATCCGGAGTCACCTAGTGCAG | 11300 fluorescence intensity (a.u.) |

Given bar-delimited: part of the list above.
Sequence | binding signal
ACATGTGCATGAGTGCATCTGCATTTTCCTCCGTGCTTATCGGAGTCACCTAGTGCAG | 8540 fluorescence intensity (a.u.)
ACTGGTATTTTTGCGTCGATTTTGGACTTGTAGTCTTTGTCGGAGTCACCTAGTGCAG | 10100 fluorescence intensity (a.u.)
